Results published in PubChem BioAssay AID445 (National Center for Advancing Translational Sciences (NCATS), 2006).
The other results are listed elsewhere or left out. Further columns of the screen follow, without active or inactive calls. The list favours compounds with an active or inconclusive main result. Words in brackets tell the shape of the fitted curve; partial curves, single points and poor fits give uncertain potencies.

Assay: IkB Signaling
Conditions: ABC-DLBCL IkBa-CBG/CBR dual luciferase ratio (green luciferase fused to IkBa over red control in OCI-Ly3 lymphoma cells), 4 h
Outline: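 Luminescence ratio of IκBα-fused green versus native red beetle luciferase in OCI-Ly3 cells, 4 h post-doxycycline with compound; red signal alone, scaled from basal (0%) to zero light (-100%), flagged nonspecific or cytotoxic effects.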

[1] = measured here: control luc red channel unless noted

Question: With Cc1ccc(Cl)cc1N1CCN(C(=O)c2ccc(CS(=O)c3ccccc3)o2)CC1 (configuration not stated) as the compound, how does the AC50 [1] read?
Answer: 15.8 µM [falling, partial curve]

Question: Which AC50 [1] does the source give for Cc1cc(C)cc(Nc2cc(C(=O)NCCCN(C)C3CCCCC3)c3ccccc3n2)c1 here?
Answer: 12.6 µM [falling, partial curve]

Question: Which AC50 [1] does the source give for COc1ccc(OC)c(CCNC(=O)CCn2c(=O)c3cccn3c3ccc(F)cc32)c1 here?
Answer: 15.8 µM [falling, single point]

Question: Which AC50 [1] does the source give for CCCn1nnc(NC(=O)COc2ccc(C3CCCCC3)cc2)n1 here?
Answer: 10 µM [falling, partial curve]

Question: With CC(C)c1ccc(NC(=O)CSC2=Nc3ccccc3C3=NC(CCC(=O)NCc4ccco4)C(=O)N23)cc1 (configuration not stated) as the compound, how does the AC50 [1] read?
Answer: 20 µM [falling, partial curve]

Question: With CN(C)c1ccc(/C=c2\sc3n(c2=O)CCCN=3)cc1 as the compound, how does the AC50 [1] read?
Answer: 2.51 µM [falling, full curve]

Question: Which AC50 [1] does the source give for CCC(C)c1c(O)nc(SCC(=O)c2ccccc2)[nH]c1=O (configuration not stated) here?
Answer: 10 µM [falling, partial curve]

Question: Which AC50 [1] does the source give for O=C(Nc1nc2c(s1)C(=O)CCC2)c1ccccc1 here?
Answer: 2 µM [falling, full curve]

Question: With Cc1ccc(CN2CCCN(Cc3c(C)cc(C)cc3C)S2(=O)=O)cc1 as the compound, how does the AC50 [1] read?
Answer: 10 µM [falling, partial curve]

Question: For CCCSC1=NC2(CCN(C(=O)NC3CCCCC3)CC2)N=C1c1ccc(Cl)cc1, which AC50 [1] is on record?
Answer: 0.0251 µM [falling, full curve, poor fit]

Question: For CC(C)(C)C(=O)OCc1cc(=O)n2nc(C3CC3)sc2n1, which AC50 [1] is on record?
Answer: 1.26 µM [rising, full curve]

Question: With COc1ccc(-c2nnn(CC(=O)c3ccc4c(c3)OCCO4)n2)cc1OC as the compound, how does the AC50 [1] read?
Answer: 39.8 µM [falling, single point]

Question: With CCCN(CCC)c1nn2c(=O)c(C(=O)NCc3cc(Br)ccc3OC)cnc2s1 as the compound, how does the AC50 [1] read?
Answer: 20 µM [falling, partial curve]

Question: With CCOC(=O)c1cc(-c2ccccc2)n(CC(=O)Nc2ccc(CC)cc2)c1C as the compound, how does the AC50 [1] read?
Answer: 2 µM [rising, partial curve]

Question: For O=C(C1CCN(S(=O)(=O)c2cccc3nsnc23)CC1)N1CCCc2ccccc21, which AC50 [1] is on record?
Answer: 15.8 µM [falling, partial curve]

Question: With Cc1ccc(C)c(NC(=O)CSc2nc3c([nH]c4ccccc43)c(=O)n2-c2ccc(F)cc2)c1 as the compound, how does the AC50 [1] read?
Answer: 0.00631 µM [falling, full curve]

Question: Which AC50 [1] does the source give for Cc1ccc2cc(CN(Cc3ccco3)C(=O)NCc3ccccc3)c(=O)[nH]c2c1C here?
Answer: 31.6 µM [falling, partial curve]

Question: With COc1ccc(CC(=O)NCC(c2ccc(Cl)cc2)N2CCOCC2)cc1 (configuration not stated) as the compound, how does the AC50 [1] read?
Answer: 39.8 µM [falling, single point]

Question: With O=C(c1c(O)c2ccccc2oc1=O)C1CCC1 as the compound, how does the AC50 [1] read?
Answer: 20 µM [falling, partial curve]

Question: With Cc1ccc(Cc2cn3cc(-c4ccccc4)nc3s2)cc1 as the compound, how does the AC50 [1] read?
Answer: 15.8 µM [falling, single point]

Question: With COc1ccc(NS(=O)(=O)c2ccc(Br)s2)cc1OC as the compound, how does the AC50 [1] read?
Answer: 10 µM [falling, partial curve]

Question: With CCc1ccc(NC(=O)C2CCCN(S(=O)(=O)c3ccc(F)cc3)C2)cc1 (configuration not stated) as the compound, how does the AC50 [1] read?
Answer: 10 µM [falling, partial curve]

Question: Which AC50 [1] does the source give for CC(=O)N1CCCc2cc(S(=O)(=O)N3CCC(C(=O)NCc4ccccc4)CC3)ccc21 here?
Answer: 1 µM [rising, full curve, poor fit]

Question: For CCN(Cc1ccccc1)C(=O)Cn1c(=O)n(-c2ccc(Cl)cc2)c(=O)c2c(C)c(C)sc21, which AC50 [1] is on record?
Answer: 3.98 µM [falling, full curve]

Question: With CCc1ccc(-n2nnc(-c3nc(-c4ccc(C)cc4)no3)c2N)cc1 as the compound, how does the AC50 [1] read?
Answer: 7.94 µM [rising, partial curve, poor fit]

Question: For O=C(Nc1sc2c(c1C(=O)NCc1ccccc1)CCCC2)c1cc(=O)c2ccccc2o1, which AC50 [1] is on record?
Answer: 31.6 µM [falling, single point]

Question: For CCOc1ccccc1C(=O)NCC(c1cccs1)S(=O)(=O)c1ccc(F)c(C)c1 (configuration not stated), which AC50 [1] is on record?
Answer: 20 µM [falling, single point]

Question: Which AC50 [1] does the source give for O=C1Nc2ccc(I)cc2/C1=C/c1cc(Br)c(O)c(Br)c1 here?
Answer: 12.6 µM [falling, partial curve]

Question: Which AC50 [1] does the source give for Cc1ccc(C)c(N2CCN(C(=O)c3ccc4c(=O)n(CCc5ccccc5)c(=O)[nH]c4c3)CC2)c1 here?
Answer: 5.01 µM [falling, partial curve, poor fit]

Question: With O=C(Nc1cc(-c2ccc(Cl)cc2)no1)c1ccc(F)cc1 as the compound, how does the AC50 [1] read?
Answer: 6.31 µM [rising, partial curve]

Question: What does the source list for COc1ccc(C(=O)C(CN2CCOCC2)c2ccccc2)cc1F (configuration not stated)?
Answer: AC50 (measured here: IkB-luc green channel): 31.6 µM [rising, single point]; AC50 (measured here: control luc red channel): 25.1 µM [falling, partial curve]
